Patent US20230051263A1, “DEVICE FOR RAPID AND QU[…] OF DRUGS OF ABUSE IN SWEAT” (THE REGENTS OF THE UNIVERSITY OF MICHIGAN, priority 2020, published 2023)
Read-outs that look alike come from different tables or passages of the source.

Experiments:
[1] = test system: corresponding antibody coated on capillary inner surface; experiment: Detection of individual drugs in artificial sweat, inhibition curves (capillary competitive chemiluminescent ELISA); type: binding; conditions: for detection limit (IC(100-3δ)): artificial sweat, 4 μL, about 16 minutes, estimated from inhibition curves
[2] = test system: four different antibodies; experiment: Multiplexed drug detection with mixed drug-HRP conjugates
[3] = cited from earlier work
[4] = test system: four different antibodies; experiment: Multiplexed drug detection with one drug absent
[5] = methadone-HRP 2000x, METH-HRP before 8x increase, amphetamine-HRP 15000x
[6] = High level, spiked: methadone 0.5, METH 10, amphetamine 3, THC 500 ng/mL
[7] = Intermediate level, spiked: methadone 0.05, METH 1, amphetamine 0.3, THC 50 ng/mL
[8] = Low level, spiked: methadone 0.006, METH 0.18, amphetamine 0.16, THC 0.1 ng/mL
[9] = Colorimetry, ELISA in meconium (ref 5, Marin 2011), >1.5 h
[10] = High level, amphetamine absent, spiked: methadone 0.6, METH 18, amphetamine 0, THC 800 ng/mL
[11] = Intermediate level, METH absent, spiked: methadone 0.06, METH 0, amphetamine 1.6, THC 100 ng/mL
[12] = Low level, methadone absent, spiked: methadone 0, METH 0.18, amphetamine 0.16, THC 0.1 ng/mL
[13] = second 'Intermediate level' group, THC absent, spiked: methadone 0.5, METH 10, amphetamine 3, THC 0 ng/mL
[14] = Colorimetry, Neogen kit (ref 1), ~1.5 h, 10 μL

Structure (SMILES) | upper limit of quantitatively analysable concentration ([1]; amphetamine-HRP 8000x dilution) | detection limit (IC(100-3δ)) [1] | upper limit of quantitatively analysable concentration [1, 5] | Observed [2, 6] | Observed [2, 7] | Observed [2, 8] | Detection limit ([3]; Colorimetry, ELISA in blood and oral fluid (ref 4, Laloup 2005), >1.5 h, 25 μL) | Detection limit [3, 9] | Observed [4, 10] | Observed [4, 11] | Observed [4, 12] | Observed [4, 13] | upper limit of quantitatively analysable concentration ([1]; 8x higher METH-HRP concentration) | Detection limit ([3]; Colorimetry, Au@Ag core-shell nanoparticle biosensor (ref 6, Mao 2017), 2 h, 10 μL) | Detection limit [3, 14] | upper limit of quantitatively analysable concentration ([1]; methadone-HRP 100x dilution) | upper limit of quantitatively analysable concentration ([1]; methadone-HRP 500x dilution) | Detection limit ([3]; Quantum dots-labeled antibody fluorescence immunoassay (ref 3, Zhang 2017), >1 h, 100 μL)
CC(N)Cc1ccccc1 (stereo not drawn) [Amphetamine, amphetamine] | 40 ng/mL | 35 pg/mL | 10 ng/mL | 2.17 ± 0.31 ng/mL | 0.41 ± 0.11 ng/mL | 0.20 ± 0.02 ng/mL | 10000 pg/mL | 20 ng/g | 0 ng/mL | 1.77 ± 0.38 ng/mL | 0.20 ± 0.02 ng/mL | 2.56 ± 0.31 ng/mL |  |  |  |  |  | 
CN[C@@H](C)Cc1ccccc1 [METH, methamphetamine] |  | 142 pg/mL | 25 ng/mL | 5.23 ± 1.27 ng/mL | 1.43 ± 0.32 ng/mL | 0.24 ± 0.03 ng/mL |  | 20 ng/g | 14.60 ± 2.83 ng/mL | 0 ng/mL | 0.21 ± 0.03 ng/mL | 8.12 ± 0.22 ng/mL | 200 ng/mL | 14.9 pg/mL | 1000 pg/mL |  |  | 
CCC(=O)C(CC(C)N(C)C)(c1ccccc1)c1ccccc1 (stereo not drawn) [Methadone, methadone] |  | 1.6 pg/mL | 1 ng/mL | 0.35 ± 0.06 ng/mL | 0.06 ± 0.02 ng/mL | 0.01 ± 0.01 ng/mL |  | 25 ng/g | 0.61 ± 0.14 ng/mL | 0.07 ± 0.03 ng/mL | 0 ng/mL | 0.61 ± 0.05 ng/mL |  |  | 50 pg/mL | 20 ng/mL | 10 ng/mL | 
CN1CC[C@]23c4c5ccc(O)c4O[C@H]2[C@@H](O)C=C[C@H]3[C@H]1C5 [Morphine, morphine] |  |  |  |  |  |  |  |  |  |  |  |  |  |  |  |  |  | 270 pg/mL
CCCCCc1cc(O)c2c(c1)OC(C)(C)[C@@H]1CCC(C)=C[C@@H]21 [THC, tetrahydrocannabinol] |  | 20 pg/mL |  | 463.70 ± 4.90 ng/mL | 48.80 ± 3.54 ng/mL | 0.18 ± 0.03 ng/mL |  |  | 738 ± 5.70 ng/mL | 106.20 ± 2.92 ng/mL | 0.12 ± 0.01 ng/mL | 0 ng/mL |  |  | 100 pg/mL |  |  | 
